Laboratory results published in PubChem BioAssay (NCATS).
The shares of active, inactive and inconclusive entries below differ from those in the screen. Where the call is inconclusive, the potency comes from a doubtful curve fit. Activity calls are given as the source filed them. Calls come from the whole dose curve; as a rule, active = well fitted cell-killing curve with a large enough effect; inconclusive = small, poorly fitted or top-dose-only effect; inactive = flat fitted curve, though single readings scatter.

Assay: qHTS assay to identify small molecule inhibitors of chordoma cells - UCH-2 (AID 1259356)
Settings: UCH-2 chordoma viability, CellTiter-Glo ATP luminescence, 48 h; series mostly up to 46.1 µM; activity change, negative = inhibition: at the top concentration
Source text: NIH Chemical Genomics Center [NCGC]
Chordoma is a rare and slow growing tumor that can occur anywhere along the spine, from the base of the skull to the tailbone. Current treatment options for chordoma is surgery and radiation therapy for those who are not candidates for surgery. But chordomas tend to return in the same location or surrounding areas of the original tumor after surgery and/or radiation. Chemotherapy can slow down the progression of the tumor. As chordoma is slow growing, the general cytotoxic agents that kill fast growing cells are ineffective, and some patients have been reported to respond to molecularly targeted drugs.
NCATS Pharmaceutical Collection (NPC) containing approximately 3000 clinically approved and investigational drugs were used to screen at 15 concentrations in a chordoma cell lines, UCH-2, to identify small molecule compounds that can inhibit chordoma cell growth.
NCGC Assay Protocol Summary:
Human chordoma cell line UCH-2 was dispensed at 800 per well in 4uL of culture medium into white solid bottom 1536-well plates (Corning Life Sciences, Corning, NY) using a Multidrop Combi (Thermo Scientific, Waltham, MA) dispenser. The assay plates were incubated at 37 C and 5% CO2 for an overnight, and then 23nL of compounds dissolved in DMSO and positive control were transferred using a Pintool station (Wako, San Diego, CA). Compound treatment was followed by the addition of 1uL of the combination compounds (1uM Auranofin, 500nM each of Camptothecin, Doxorubicin, Rubitecan, and Topotecan) and assay medium to each well of the assay plates using Flying Reagent Dispenser (FRD, Aurora Discovery, San Diego, CA). The assay plates were incubated at 37 C and 5% CO2 for 48hr. Then 5uL of CellTiter-Glo reagent (Promega Corporation, Madison, WI) was added to each well of the assay plates using FRD. After 30min incubation at room temperature, the luminescence signal was quantified using a ViewLux plate reader (PerkinElmer, Shelton, CT).
% is set by controls: 0 for no effect and ±100 for the full control effect; potency is the fitted concentration of half-maximal effect.

Structure (SMILES)	activity change, negative = inhibition	Potency
CCCCCCCCCCCCCCCC(=O)NCCO	inactive: -2.18%	
CCN1/C(=C/C=C/c2sc3ccccc3[n+]2CC)Sc2ccccc21		active: 5.8 µM
O=C(Nc1ccc([N+](=O)[O-])cc1Cl)c1cc(Cl)ccc1O		inconclusive: 2.31 µM [cytotoxic, full curve, poor fit]
CC(NCCC(c1ccccc1)c1ccccc1)c1ccccc1 (stereo unspecified)		inconclusive: 29.1 µM [cytotoxic, single point]
Oc1c(Br)cc(Br)c2cccnc12		inconclusive: 25.9 µM [cytotoxic, single point]
O=C(O)c1ccccc1Nc1cccc(C(F)(F)F)c1	inactive: 2.06%	
CN(C)c1ccc(C(=C2C=CC(=[N+](C)C)C=C2)c2ccccc2)cc1		inconclusive: 14.6 µM [cytotoxic, full curve, poor fit]
CSc1ccc2c(c1)C(N1CCN(C)CC1)Cc1ccccc1S2 (stereo unspecified)	inactive: -21.6%	
CCCCN(CCCC)CCC(O)c1cc2c(Cl)cc(Cl)cc2c2cc(C(F)(F)F)ccc12 (stereo unspecified)	inactive: 4.4% [at 20.6 µM]	
O=C1c2c(O)ccc(O)c2C(=O)c2c(NCCNCCO)ccc(NCCNCCO)c21		inconclusive: 3.12 µM [cytotoxic, full curve, poor fit]
O=c1c(-c2ccc(O)cc2)coc2cc(O)cc(O)c12		inconclusive: 29.1 µM [cytotoxic, single point]

A draw from above in order of molar mass, low to high.
Structure (SMILES)	activity change, negative = inhibition	Potency
CCCCCCCCCCCCCCCC(=O)NCCO	inactive: -2.18%	
O=C(Nc1ccc([N+](=O)[O-])cc1Cl)c1cc(Cl)ccc1O		inconclusive: 2.31 µM [cytotoxic, full curve, poor fit]
CN(C)c1ccc(C(=C2C=CC(=[N+](C)C)C=C2)c2ccccc2)cc1		inconclusive: 14.6 µM [cytotoxic, full curve, poor fit]
